Laboratory results taken from publication PMC3196579.
These are yes or no findings as the source states them, for the method shown. Binding seen in cells or lysates may run through a third protein. A yes stands for co-enrichment or nearness to the bait. Other partners may have been found. Where a sequence is shown, tags or fusion partners need not be part of it.

By UniProt entry, the sequences of proteins in these tests, tags left out. Residues count along the entry.
UniProt P11021, residues 19-654: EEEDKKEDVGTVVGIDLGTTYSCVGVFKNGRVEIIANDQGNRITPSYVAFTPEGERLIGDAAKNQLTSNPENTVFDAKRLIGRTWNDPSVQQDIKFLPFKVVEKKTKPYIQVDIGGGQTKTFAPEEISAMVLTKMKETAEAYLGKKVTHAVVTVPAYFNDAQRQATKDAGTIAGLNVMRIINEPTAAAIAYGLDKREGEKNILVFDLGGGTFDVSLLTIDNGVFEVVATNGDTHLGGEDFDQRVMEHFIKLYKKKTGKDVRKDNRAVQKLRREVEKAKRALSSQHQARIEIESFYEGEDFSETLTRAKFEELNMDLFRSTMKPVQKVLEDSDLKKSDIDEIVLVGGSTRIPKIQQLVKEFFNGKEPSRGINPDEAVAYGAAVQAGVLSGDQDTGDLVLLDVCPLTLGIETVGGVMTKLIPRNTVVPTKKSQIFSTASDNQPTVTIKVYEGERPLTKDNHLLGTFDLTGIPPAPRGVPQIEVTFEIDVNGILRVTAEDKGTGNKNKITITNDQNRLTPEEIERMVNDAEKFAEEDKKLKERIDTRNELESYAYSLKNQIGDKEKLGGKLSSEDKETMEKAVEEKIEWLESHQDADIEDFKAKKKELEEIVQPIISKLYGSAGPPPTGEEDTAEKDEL
UniProt P30101, residues 25-505: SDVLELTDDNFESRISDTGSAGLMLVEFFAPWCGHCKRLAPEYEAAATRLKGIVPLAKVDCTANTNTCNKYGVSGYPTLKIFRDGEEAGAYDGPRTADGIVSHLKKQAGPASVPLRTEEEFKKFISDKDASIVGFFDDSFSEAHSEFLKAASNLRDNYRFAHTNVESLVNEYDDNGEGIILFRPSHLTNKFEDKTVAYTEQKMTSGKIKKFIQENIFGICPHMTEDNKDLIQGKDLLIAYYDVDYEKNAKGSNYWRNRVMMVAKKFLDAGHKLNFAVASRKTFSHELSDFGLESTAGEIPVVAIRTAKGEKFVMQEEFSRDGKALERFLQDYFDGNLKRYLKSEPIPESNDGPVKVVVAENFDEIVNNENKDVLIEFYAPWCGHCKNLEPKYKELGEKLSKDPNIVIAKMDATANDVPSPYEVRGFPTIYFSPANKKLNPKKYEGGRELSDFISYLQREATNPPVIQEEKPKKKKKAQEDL
UniProt P14625, residues 22-803: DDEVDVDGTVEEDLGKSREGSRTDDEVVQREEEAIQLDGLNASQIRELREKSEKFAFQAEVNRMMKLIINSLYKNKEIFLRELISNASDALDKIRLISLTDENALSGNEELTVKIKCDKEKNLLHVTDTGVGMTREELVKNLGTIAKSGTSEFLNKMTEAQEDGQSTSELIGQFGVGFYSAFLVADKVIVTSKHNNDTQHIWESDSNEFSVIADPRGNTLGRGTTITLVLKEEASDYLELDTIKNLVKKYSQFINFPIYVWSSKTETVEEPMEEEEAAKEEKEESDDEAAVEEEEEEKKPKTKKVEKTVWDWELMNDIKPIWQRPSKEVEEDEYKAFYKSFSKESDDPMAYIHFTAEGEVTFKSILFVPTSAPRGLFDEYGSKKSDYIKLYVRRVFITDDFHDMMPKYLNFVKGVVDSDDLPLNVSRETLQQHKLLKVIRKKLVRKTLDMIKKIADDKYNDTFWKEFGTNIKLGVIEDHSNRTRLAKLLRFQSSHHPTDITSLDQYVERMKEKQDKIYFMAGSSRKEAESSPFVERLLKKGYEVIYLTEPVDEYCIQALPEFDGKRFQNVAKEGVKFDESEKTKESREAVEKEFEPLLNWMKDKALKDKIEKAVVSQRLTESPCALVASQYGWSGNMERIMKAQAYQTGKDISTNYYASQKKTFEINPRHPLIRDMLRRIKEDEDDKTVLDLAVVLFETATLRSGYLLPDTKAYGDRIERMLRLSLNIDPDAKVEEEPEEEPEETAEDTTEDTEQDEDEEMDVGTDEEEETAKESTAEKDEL
UniProt P0DMV8: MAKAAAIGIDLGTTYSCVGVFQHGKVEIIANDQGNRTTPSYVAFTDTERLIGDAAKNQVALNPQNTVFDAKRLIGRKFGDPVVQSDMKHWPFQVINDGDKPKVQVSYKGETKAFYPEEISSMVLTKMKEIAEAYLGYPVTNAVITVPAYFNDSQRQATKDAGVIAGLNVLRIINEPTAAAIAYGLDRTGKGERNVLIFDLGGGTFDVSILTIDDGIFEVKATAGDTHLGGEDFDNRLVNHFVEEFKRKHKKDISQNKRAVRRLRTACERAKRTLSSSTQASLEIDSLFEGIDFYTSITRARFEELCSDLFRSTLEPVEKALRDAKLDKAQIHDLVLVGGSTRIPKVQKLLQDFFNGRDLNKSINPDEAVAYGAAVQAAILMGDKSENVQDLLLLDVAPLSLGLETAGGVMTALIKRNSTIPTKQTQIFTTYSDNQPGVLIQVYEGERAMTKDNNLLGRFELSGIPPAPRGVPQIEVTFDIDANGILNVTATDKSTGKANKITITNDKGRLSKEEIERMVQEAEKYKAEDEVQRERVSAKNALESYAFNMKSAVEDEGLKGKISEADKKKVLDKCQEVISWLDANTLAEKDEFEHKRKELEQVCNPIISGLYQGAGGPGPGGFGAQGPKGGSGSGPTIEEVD
UniProt P07237, residues 18-508: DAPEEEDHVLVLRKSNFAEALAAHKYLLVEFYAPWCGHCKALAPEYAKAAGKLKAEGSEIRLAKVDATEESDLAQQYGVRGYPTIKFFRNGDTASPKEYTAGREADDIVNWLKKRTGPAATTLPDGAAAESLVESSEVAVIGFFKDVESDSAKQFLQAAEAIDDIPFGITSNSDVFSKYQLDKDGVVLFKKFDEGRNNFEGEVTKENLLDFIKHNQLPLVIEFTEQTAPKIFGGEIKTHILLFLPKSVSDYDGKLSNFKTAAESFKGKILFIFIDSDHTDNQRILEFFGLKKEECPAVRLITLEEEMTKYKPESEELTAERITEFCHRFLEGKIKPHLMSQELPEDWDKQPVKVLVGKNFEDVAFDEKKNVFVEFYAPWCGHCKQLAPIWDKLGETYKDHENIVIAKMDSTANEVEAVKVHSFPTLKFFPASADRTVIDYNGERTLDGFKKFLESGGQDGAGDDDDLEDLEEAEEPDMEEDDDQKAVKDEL

Target: T1, mouse progranulin tagged with HA (mouse) (UniProt P28798)
T1 sequence: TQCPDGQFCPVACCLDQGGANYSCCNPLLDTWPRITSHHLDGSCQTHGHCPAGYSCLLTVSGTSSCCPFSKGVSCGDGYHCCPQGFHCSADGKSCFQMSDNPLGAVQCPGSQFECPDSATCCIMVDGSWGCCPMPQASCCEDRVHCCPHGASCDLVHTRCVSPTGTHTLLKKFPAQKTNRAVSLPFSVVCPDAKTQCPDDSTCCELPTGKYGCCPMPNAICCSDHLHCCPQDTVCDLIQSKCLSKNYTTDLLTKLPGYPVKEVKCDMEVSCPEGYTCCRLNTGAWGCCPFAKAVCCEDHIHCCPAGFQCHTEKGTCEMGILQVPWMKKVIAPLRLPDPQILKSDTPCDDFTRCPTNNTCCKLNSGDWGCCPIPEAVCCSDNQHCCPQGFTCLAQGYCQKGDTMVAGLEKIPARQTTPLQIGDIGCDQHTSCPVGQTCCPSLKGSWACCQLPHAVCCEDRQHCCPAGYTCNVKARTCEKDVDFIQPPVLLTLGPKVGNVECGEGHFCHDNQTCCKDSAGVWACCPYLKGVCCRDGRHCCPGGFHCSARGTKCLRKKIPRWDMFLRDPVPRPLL
Assay: cross-linking + affinity purification with mass spectrometry; HEK293 cells stably expressing mPGRN-HA treated with 1 mM DSS (membrane-permeable) in Ca2+- and Mg2+-free PBS, 30 min, room temperature; lysed in 50 mM Tris-HCl, 150 mM NaCl, 0.5% Triton X-100, 1 mM EDTA; IP with anti-HA (3F10) overnight at 4 °C, protein G-agarose; SDS-PAGE, silver stain, bands 1-4 cut out for mass spectrometry

How did the binding turn out when BiP (from UniProt P11021 19-654) was run?
The binding was “binds”.

Which binding does the source give for “ERp57 (from UniProt P30101 25-505) (enzyme)” here?
Its binding is “binds”.

How did the binding turn out when GRP94 (from UniProt P14625 22-803) was run?
The binding was “binds”.

With HSP70-1 (from UniProt P0DMV8 1-641) as the molecule, how does the binding read?
Its binding is “binds”.

“calreticulin (from UniProt P27797 18-417)” was tested. Which binding did it give?
Its binding is “binds”.

How did the binding turn out when “protein disulfide isomerase (from UniProt P07237 18-508) (enzyme)” was run?
Its binding is “binds”.

B1: ERp72 (enzyme, UniProt P13667 21-645)
chain: VAGAEGPDEDSSNRENAIEDEEEEEEEDDDEEEDDLEVKEENGVLVLNDANFDNFVADKDTVLLEFYAPWCGHCKQFAPEYEKIANILKDKDPPIPVAKIDATSASVLASRFDVSGYPTIKILKKGQAVDYEGSRTQEEIVAKVREVSQPDWTPPPEVTLVLTKENFDEVVNDADIILVEFYAPWCGHCKKLAPEYEKAAKELSKRSPPIPLAKVDATAETDLAKRFDVSGYPTLKIFRKGRPYDYNGPREKYGIVDYMIEQSGPPSKEILTLKQVQEFLKDGDDVIIIGVFKGESDPAYQQYQDAANNLREDYKFHHTFSTEIAKFLKVSQGQLVVMQPEKFQSKYEPRSHMMDVQGSTQDSAIKDFVLKYALPLVGHRKVSNDAKRYTRRPLVVVYYSVDFSFDYRAATQFWRSKVLEVAKDFPEYTFAIADEEDYAGEVKDLGLSESGEDVNAAILDESGKKFAMEPEEFDSDTLREFVTAFKKGKLKPVIKSQPVPKNNKGPVKVVVGKTFDSIVMDPKKDVLIEFYAPWCGHCKQLEPVYNSLAKKYKGQKGLVIAKMDATANDVPSDRYKVEGFPTIYFAPSGDKKNPVKFEGGDRDLEHLSKFIEEHATKLSRTKEEL
With B1 as the molecule, how does the binding read?
Its binding is “binds”.

B2: ERp5 (enzyme, UniProt Q15084 20-440)
chain: LYSSSDDVIELTPSNFNREVIQSDSLWLVEFYAPWCGHCQRLTPEWKKAATALKDVVKVGAVDADKHHSLGGQYGVQGFPTIKIFGSNKNRPEDYQGGRTGEAIVDAALSALRQLVKDRLGGRSGGYSSGKQGRSDSSSKKDVIELTDDSFDKNVLDSEDVWMVEFYAPWCGHCKNLEPEWAAAASEVKEQTKGKVKLAAVDATVNQVLASRYGIRGFPTIKIFQKGESPVDYDGGRTRSDIVSRALDLFSDNAPPPELLEIINEDIAKRTCEEHQLCVVAVLPHILDTGAAGRNSYLEVLLKLADKYKKKMWGWLWTEAGAQSELETALGIGGFGYPAMAAINARKMKFALLKGSFSEQGINEFLRELSFGRGSTAPVGGGAFPTIVEREPWDGRDGELPVEDDIDLSDVELDDLGKDEL
Which binding does the source give for B2 here?
The binding was “binds”.
